In the supplement of paper PMC12578635:
This is one part of the list. No stated cut-off is given here; in the data, active = 150% or more and inactive = the rest. Repeats are few or missing, and single values can be far off.

Tested on: Staphylococcus aureus JE2-lux inside RAW 264.7 macrophages
Test: intracellular bacterial bioluminescence relative to DMSO vehicle; higher = higher intracellular bacterial metabolic activity
Details: 10 µM; treatment time 4 h; gentamicin 50 µg/ml

Compound | intracellular bacterial bioluminescence
N#CC1=C(N)OC2=C(C(=O)CCC2)C1c1ccc(-c2cccc([N+](=O)[O-])c2)o1 (stereo not given) | inactive: 55.4%
O=c1nc2s/c(=C/c3ccccn3)c(=O)n2nc1-c1ccccc1 | inactive: 103%
COC(=O)c1ccccc1NC1SC(=O)N(c2cccc(C)c2)C1=O (stereo not given) | inactive: 82.4%
Cc1nc(-n2nc(C)c(CCC(C)C)c2O)sc1C(=O)Nc1ccc(Cl)cc1 | active: 155%
O=C(CSCc1ccccc1)NCc1n[nH]c(=O)c2ccccc12 | inactive: 78.5%
CC1CC(C)CN(S(=O)(=O)c2ccc(C(=O)Nc3ccc4ncsc4c3)cc2)C1 (stereo not given) | inactive: 130%
Cc1ccc(-c2noc(-c3cn(Cc4ccc(N)cc4)cn3)n2)cc1 | inactive: 67.7%
COc1ccc(-c2nnc3sc(-c4ccc(Br)o4)nn23)cc1 | inactive: 65%
O=C(NCc1nnnn1-c1ccc(F)cc1)Nc1ccc2c(c1)OCO2 | inactive: 79.6%
Cc1cccn2c(=O)nc(SCC(=O)N3CCCCCC3)nc12 | inactive: 142%
O=C(CSc1nc2[nH]ncc2c(=O)[nH]1)N1CCC(Cc2ccccc2)CC1 | inactive: 72.1%
O=C(Nc1cccc(C(=O)N2CCOCC2)c1)c1cnn(-c2ccc(F)cc2)c1 | inactive: 74.1%
Cc1nn2c(=O)cc(CSc3nnc(-c4ccc5c(c4)OCO5)o3)nc2s1 | inactive: 98.2%
CCOC(=O)c1cnn2c(C)c(Cc3ccccc3)c(C)nc12 | inactive: 79.6%
CCOc1ccc(C(=O)NCC(c2ccc3c(c2)CCN3C)N2CCCCC2)cc1 (stereo not given) | inactive: 146%
Cn1cnnc1SCC(=O)Nc1nnc(-c2ccc(Br)cc2)s1 | inactive: 130%
Cc1[nH]c(=O)[nH]c(=O)c1NC(=O)CSc1ccc(-c2ccc(F)cc2)nn1 | inactive: 119%
NS(=O)(=O)c1ccc(NC(=O)CCn2cnc3onc(-c4ccccc4Cl)c3c2=O)cc1 | inactive: 118%
O=C(Nc1ccccc1F)N1CCc2nc(N3CCCC3)[nH]c(=O)c2C1 | inactive: 101%
CC(C)N1CCn2c(nc3cc(NC(=O)CCc4ccccc4)ccc32)C1 | inactive: 53.4%
COC(=O)c1cc(C)sc1NC(=O)CC1Sc2ccc(C(F)(F)F)cc2NC1=O (stereo not given) | inactive: 133%
Cc1cc(Nc2nc(C(=O)N3CCC(N4CCCCC4)CC3)cc3occc23)ccc1Br | active: 151%
CCC(C(=O)Nc1c(C(=O)Nc2ccc([N+](=O)[O-])cc2)oc2ccccc12)c1ccccc1 (stereo not given) | inactive: 124%
COc1ccccc1CNC(=O)c1nccn1Cc1ccccc1Cl | inactive: 55.1%
O=C1Nc2c(Cl)cc(Cl)cc2/C1=N\NC(=O)c1ccccc1O | inactive: 92.7%

Part of the list above in order of formula weight, rising:
Compound | intracellular bacterial bioluminescence
O=C(NCc1nnnn1-c1ccc(F)cc1)Nc1ccc2c(c1)OCO2 | inactive: 79.6%
N#CC1=C(N)OC2=C(C(=O)CCC2)C1c1ccc(-c2cccc([N+](=O)[O-])c2)o1 (stereo not given) | inactive: 55.4%
O=C(CSc1nc2[nH]ncc2c(=O)[nH]1)N1CCC(Cc2ccccc2)CC1 | inactive: 72.1%
